# The list shows a part of the results. The list holds hits alone, and they repeat only in part.
# Protein sequences, listed by entry. Tags and fused reporters are not part of them.
# CDK9, P50750, UniProt P50750, whole entry: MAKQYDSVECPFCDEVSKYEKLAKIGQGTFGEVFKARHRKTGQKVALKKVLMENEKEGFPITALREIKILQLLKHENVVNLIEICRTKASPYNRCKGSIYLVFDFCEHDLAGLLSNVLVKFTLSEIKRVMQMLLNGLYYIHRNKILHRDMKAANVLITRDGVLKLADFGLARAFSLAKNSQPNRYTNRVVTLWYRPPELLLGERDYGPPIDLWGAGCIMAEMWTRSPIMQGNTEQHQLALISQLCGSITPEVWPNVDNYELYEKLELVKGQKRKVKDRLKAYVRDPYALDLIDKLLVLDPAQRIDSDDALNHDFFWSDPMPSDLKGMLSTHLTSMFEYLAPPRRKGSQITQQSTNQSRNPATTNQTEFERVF
# EIF3H, O15372, UniProt O15372, whole entry: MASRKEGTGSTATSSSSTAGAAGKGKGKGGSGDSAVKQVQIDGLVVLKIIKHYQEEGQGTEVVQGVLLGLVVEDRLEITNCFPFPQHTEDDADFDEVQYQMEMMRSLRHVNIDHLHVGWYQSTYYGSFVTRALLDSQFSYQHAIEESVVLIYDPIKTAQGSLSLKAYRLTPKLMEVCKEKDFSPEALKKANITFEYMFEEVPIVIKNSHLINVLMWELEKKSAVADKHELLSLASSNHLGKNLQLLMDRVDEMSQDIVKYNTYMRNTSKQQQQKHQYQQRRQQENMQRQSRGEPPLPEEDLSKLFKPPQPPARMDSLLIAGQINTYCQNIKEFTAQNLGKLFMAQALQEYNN
# HDAC1, Q13547, UniProt Q13547, whole entry: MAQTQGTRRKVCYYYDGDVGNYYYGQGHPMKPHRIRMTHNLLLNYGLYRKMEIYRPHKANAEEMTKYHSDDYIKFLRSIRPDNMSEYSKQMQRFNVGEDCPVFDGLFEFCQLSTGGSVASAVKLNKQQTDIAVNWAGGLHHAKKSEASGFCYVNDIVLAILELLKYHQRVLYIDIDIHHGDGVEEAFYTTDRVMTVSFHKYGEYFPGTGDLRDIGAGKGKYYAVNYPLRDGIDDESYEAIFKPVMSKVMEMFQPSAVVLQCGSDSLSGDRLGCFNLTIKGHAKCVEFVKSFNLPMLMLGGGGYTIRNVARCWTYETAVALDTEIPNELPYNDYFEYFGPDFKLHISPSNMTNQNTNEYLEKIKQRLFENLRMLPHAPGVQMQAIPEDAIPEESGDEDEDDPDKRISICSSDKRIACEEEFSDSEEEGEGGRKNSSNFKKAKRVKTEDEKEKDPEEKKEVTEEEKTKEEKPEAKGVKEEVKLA
# MORF4L1, Q9UBU8, UniProt Q9UBU8, whole entry: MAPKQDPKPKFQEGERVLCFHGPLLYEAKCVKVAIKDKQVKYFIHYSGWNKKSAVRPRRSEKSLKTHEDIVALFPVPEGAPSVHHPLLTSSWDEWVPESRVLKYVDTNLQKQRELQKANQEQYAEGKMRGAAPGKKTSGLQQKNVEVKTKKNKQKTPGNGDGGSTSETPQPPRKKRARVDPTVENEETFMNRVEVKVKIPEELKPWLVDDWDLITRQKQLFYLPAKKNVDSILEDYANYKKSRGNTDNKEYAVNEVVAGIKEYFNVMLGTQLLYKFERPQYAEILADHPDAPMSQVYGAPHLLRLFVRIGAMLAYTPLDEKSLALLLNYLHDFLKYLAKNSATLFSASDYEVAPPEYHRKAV
# NELFE, P18615, UniProt P18615, whole entry: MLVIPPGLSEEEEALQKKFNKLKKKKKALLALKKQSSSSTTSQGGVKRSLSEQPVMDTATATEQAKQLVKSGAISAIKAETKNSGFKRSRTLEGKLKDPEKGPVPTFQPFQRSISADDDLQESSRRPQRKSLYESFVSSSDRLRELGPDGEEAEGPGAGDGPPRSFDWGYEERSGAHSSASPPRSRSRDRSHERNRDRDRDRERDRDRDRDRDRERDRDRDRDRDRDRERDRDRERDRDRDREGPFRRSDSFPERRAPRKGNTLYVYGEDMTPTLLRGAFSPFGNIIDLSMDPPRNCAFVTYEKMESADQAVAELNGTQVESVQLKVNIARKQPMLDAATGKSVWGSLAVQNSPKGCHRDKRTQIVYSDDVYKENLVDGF
# SMARCA4, P51532, UniProt P51532, whole entry: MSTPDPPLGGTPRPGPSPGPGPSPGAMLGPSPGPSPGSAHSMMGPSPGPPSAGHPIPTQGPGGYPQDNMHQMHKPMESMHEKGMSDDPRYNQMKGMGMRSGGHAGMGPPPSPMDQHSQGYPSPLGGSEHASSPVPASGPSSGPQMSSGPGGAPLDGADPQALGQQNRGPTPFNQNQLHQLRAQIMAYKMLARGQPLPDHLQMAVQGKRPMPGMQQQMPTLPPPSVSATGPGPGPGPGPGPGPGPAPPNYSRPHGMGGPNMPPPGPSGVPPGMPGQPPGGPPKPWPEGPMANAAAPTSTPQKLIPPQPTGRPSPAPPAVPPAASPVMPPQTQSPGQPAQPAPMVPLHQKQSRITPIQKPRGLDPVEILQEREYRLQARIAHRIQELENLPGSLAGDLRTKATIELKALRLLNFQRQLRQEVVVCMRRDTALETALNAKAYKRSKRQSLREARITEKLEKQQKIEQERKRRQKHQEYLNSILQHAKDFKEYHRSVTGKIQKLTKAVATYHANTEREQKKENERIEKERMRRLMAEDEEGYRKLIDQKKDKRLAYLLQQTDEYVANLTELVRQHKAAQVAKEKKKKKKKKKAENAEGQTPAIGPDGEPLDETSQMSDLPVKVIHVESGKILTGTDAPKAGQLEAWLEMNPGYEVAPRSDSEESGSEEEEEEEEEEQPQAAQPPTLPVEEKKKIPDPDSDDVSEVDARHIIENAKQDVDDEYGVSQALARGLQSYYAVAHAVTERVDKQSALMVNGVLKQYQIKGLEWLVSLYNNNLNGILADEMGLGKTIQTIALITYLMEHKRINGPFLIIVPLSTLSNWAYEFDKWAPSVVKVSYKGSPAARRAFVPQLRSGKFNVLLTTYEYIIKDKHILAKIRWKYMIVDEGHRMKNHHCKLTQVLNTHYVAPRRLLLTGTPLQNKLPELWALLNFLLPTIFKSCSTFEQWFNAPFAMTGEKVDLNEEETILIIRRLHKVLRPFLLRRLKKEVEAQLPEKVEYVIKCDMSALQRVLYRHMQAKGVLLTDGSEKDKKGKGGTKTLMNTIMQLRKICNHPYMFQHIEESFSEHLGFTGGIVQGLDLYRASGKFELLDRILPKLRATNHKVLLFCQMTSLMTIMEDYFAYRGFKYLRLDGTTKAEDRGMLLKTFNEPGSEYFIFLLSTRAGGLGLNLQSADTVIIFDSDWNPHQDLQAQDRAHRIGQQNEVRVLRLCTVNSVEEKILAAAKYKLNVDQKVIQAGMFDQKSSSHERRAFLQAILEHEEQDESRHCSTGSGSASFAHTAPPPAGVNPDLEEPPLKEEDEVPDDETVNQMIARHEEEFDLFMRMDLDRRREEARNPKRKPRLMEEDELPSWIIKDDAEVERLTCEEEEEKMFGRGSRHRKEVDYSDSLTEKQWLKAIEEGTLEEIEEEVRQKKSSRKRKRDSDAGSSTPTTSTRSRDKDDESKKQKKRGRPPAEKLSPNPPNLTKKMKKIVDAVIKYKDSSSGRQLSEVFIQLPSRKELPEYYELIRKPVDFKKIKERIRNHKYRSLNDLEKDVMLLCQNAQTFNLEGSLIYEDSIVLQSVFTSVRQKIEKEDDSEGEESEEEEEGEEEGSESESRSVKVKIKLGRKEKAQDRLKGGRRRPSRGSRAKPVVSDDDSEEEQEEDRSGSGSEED
# SNRNP70, P08621, UniProt P08621, whole entry: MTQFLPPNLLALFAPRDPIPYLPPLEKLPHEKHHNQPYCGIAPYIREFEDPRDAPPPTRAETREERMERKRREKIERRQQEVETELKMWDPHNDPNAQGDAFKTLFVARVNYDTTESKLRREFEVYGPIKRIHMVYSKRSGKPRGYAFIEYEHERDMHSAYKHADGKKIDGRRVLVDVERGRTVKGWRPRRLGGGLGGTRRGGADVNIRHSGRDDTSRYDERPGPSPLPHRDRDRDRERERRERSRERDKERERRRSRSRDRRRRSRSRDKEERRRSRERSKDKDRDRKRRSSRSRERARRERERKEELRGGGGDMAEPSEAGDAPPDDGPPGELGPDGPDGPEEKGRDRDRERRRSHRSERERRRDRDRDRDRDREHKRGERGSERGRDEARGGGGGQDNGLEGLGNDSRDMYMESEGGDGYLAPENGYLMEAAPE
# TPX2, Q9ULW0, UniProt Q9ULW0, whole entry: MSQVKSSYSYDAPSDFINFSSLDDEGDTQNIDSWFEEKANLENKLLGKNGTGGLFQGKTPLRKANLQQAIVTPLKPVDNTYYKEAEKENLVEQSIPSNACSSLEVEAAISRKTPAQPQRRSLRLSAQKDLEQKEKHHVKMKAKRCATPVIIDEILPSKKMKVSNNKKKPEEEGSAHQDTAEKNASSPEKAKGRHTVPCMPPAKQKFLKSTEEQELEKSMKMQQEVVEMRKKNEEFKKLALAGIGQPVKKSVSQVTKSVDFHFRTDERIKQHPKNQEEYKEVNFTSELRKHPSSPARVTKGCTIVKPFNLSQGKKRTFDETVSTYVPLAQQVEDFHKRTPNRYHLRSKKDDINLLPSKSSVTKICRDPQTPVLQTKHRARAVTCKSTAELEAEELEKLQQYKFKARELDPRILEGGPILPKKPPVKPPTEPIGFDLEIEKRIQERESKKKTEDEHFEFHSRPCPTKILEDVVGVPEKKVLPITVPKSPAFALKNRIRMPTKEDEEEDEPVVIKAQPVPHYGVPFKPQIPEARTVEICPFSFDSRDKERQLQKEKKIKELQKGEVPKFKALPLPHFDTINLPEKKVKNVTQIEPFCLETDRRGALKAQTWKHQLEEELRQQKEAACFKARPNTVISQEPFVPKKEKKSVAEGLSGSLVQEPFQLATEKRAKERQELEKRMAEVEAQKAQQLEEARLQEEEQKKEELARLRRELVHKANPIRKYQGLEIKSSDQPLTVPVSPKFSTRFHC
# PLK1, P53350, UniProt P53350, whole entry: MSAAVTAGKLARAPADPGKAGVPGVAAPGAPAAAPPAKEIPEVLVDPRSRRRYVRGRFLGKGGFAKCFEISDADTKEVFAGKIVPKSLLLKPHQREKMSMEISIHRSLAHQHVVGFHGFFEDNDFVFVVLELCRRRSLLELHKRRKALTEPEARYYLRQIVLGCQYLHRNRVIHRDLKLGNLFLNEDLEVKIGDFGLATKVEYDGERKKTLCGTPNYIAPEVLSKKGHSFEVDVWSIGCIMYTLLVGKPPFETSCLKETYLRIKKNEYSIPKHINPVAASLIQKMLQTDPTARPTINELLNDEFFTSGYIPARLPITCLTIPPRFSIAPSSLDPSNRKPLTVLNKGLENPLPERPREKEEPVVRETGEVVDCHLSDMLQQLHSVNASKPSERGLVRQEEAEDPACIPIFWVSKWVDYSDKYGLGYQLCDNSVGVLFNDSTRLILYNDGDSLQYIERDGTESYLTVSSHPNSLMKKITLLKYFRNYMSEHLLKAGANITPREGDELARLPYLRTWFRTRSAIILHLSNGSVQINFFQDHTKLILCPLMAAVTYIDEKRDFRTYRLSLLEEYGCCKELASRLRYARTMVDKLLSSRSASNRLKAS
# SOD1, P00441, UniProt P00441, whole entry: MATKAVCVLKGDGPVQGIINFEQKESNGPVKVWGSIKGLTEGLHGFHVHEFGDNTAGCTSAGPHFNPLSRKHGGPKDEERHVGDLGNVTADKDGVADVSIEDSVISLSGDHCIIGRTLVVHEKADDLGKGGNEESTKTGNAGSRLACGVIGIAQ
# TUBGCP3, Q96CW5, UniProt Q96CW5, whole entry: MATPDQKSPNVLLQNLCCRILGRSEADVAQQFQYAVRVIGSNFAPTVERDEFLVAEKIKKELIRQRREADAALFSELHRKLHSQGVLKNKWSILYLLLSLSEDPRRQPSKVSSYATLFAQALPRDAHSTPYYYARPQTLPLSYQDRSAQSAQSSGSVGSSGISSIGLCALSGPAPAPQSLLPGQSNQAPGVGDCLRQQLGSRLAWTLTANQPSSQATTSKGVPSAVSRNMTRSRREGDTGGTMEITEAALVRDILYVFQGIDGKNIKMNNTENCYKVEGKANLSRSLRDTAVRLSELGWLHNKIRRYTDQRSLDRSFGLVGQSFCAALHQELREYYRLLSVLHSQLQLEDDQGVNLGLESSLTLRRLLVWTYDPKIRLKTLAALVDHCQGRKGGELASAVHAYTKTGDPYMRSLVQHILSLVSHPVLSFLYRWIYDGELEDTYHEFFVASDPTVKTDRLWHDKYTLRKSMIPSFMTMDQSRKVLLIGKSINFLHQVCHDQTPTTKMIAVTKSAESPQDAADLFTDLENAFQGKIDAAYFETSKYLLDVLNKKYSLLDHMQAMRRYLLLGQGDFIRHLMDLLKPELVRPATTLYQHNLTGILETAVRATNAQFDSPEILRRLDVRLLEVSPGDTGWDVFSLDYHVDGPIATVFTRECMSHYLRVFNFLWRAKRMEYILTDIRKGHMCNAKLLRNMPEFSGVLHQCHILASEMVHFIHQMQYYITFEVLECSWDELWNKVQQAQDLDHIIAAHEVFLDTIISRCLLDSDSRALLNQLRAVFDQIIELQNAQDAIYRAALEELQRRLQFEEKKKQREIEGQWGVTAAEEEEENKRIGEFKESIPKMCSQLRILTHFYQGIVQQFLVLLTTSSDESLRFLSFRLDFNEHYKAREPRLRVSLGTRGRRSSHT
# Columns and labels:
# Assay in all cases: PRISMA enrichment of interactor (LFQ) in peptide spot vs all other peptide spots (log2 fold change); higher = stronger / more specific binding of the interactor to the peptide
# [1] = target: ARMC6, Q6NXE6
# Description: (§1)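 PRISMA: 15-aa overlapping tiles (offset 8 aa) of 60 microproteins, plus SOS1/GLUT1 control peptides, were spot-synthesized on cellulose membranes in triplicate. Membranes were incubated with benzonase-treated HEK293T lysate, and bound proteins were identified by LC-MS/MS with LFQ. Enrichment is the log2 fold change of each protein in one spot versus all other spots. Only interactors passing the significance cutoff are listed.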
# [2] = target: ASNS, P08243
# Description: as §1
# [3] = target: BRI3BP, Q8WY22
# Description: as §1
# [4] = target: CDK9, P50750
# Description: as §1
# [5] = target: CENPB, P07199
# Description: as §1
# [6] = target: CLASP2, O75122
# Description: as §1
# [7] = target: CTNND1, O60716
# Description: as §1
# [8] = target: DNAJA2, O60884
# Description: as §1
# [9] = target: DNAJC7, Q99615
# Description: as §1
# [10] = target: EIF3H, O15372
# Description: as §1
# [11] = target: GLYR1, Q49A26
# Description: as §1
# [12] = target: GMPPA, Q96IJ6
# Description: as §1
# [13] = target: HDAC1, Q13547
# Description: as §1
# [14] = target: HK2, P52789
# Description: as §1
# [15] = target: HLA-B
# Description: as §1
# [16] = target: HNRNPF, P52597
# Description: as §1
# [17] = target: MACF1
# Description: as §1
# [18] = target: MAZ, P56270
# Description: as §1
# [19] = target: MORF4L1, Q9UBU8
# Description: as §1
# [20] = target: MOV10, Q9HCE1
# Description: as §1
# [21] = target: MRPS21, P82921
# Description: as §1
# [22] = target: MRPS26, Q9BYN8
# Description: as §1
# [23] = target: MTCH2, Q9Y6C9
# Description: as §1
# [24] = target: MTX2, O75431
# Description: as §1
# [25] = target: NELFE, P18615
# Description: as §1
# [26] = target: NFS1, Q9Y697
# Description: as §1
# [27] = target: NOL8, Q76FK4
# Description: as §1
# [28] = target: NUP88, Q99567
# Description: as §1
# [29] = target: PAWR, Q96IZ0
# Description: as §1
# [30] = target: PSIP1, O75475
# Description: as §1
# [31] = target: PSMA4, P25789
# Description: as §1
# [32] = target: RRP9, O43818
# Description: as §1
# [33] = target: SDE2, Q6IQ49
# Description: as §1
# [34] = target: SEC22B, O75396
# Description: as §1
# [35] = target: SMARCA4, P51532
# Description: as §1
# [36] = target: SNRNP70, P08621
# Description: as §1
# [37] = target: SUPT5H, O00267
# Description: as §1
# [38] = target: TIA1, P31483
# Description: as §1
# [39] = target: TPX2, Q9ULW0
# Description: as §1
# [40] = target: UBTF, P17480
# Description: as §1
# [41] = target: UFL1, O94874
# Description: as §1
# [42] = target: WDR5, P61964
# Description: as §1
# [43] = target: AURKAIP1, Q9NWT8
# Description: as §1
# [44] = target: BOLA2, Q9H3K6
# Description: as §1
# [45] = target: CENPE, Q02224
# Description: as §1
# [46] = target: KHSRP, Q92945
# Description: as §1
# [47] = target: LEO1, Q8WVC0
# Description: as §1
# [48] = target: MAGED2, Q9UNF1
# Description: as §1
# [49] = target: MAGT1, Q9H0U3
# Description: as §1
# [50] = target: MRPS15, P82914
# Description: as §1
# [51] = target: MRPS33, Q9Y291
# Description: as §1
# [52] = target: PLK1, P53350
# Description: as §1
# [53] = target: REXO4, Q9GZR2
# Description: as §1
# [54] = target: SCYL1, Q96KG9
# Description: as §1
# [55] = target: SOD1, P00441
# Description: as §1
# [56] = target: THRAP3, Q9Y2W1
# Description: as §1
# [57] = target: TUBGCP3, Q96CW5
# Description: as §1
# [58] = target: UBAP2, Q5T6F2
# Description: as §1
# [59] = target: WDR12, Q9GZL7
# Description: as §1
binder,measurement,setting,value
MATPVGVEHGEQSQA [SNHG16],PRISMA enrichment of interactor (log2),[1],6.09
same,PRISMA enrichment of interactor (log2),[2],7.5
same,PRISMA enrichment of interactor (log2),[3],4.62
same,PRISMA enrichment of interactor (log2),[4],6.52
same,PRISMA enrichment of interactor (log2),[5],7.87
same,PRISMA enrichment of interactor (log2),[6],5.73
same,PRISMA enrichment of interactor (log2),[7],5.8
same,PRISMA enrichment of interactor (log2),[8],4.71
same,PRISMA enrichment of interactor (log2),[9],8.05
same,PRISMA enrichment of interactor (log2),[10],10.2
same,PRISMA enrichment of interactor (log2),[11],6.38
same,PRISMA enrichment of interactor (log2),[12],8.07
same,PRISMA enrichment of interactor (log2),[13],5.46
same,PRISMA enrichment of interactor (log2),[14],6.24
same,PRISMA enrichment of interactor (log2),[15],6.67
same,PRISMA enrichment of interactor (log2),[16],5.46
same,PRISMA enrichment of interactor (log2),[17],5.76
same,PRISMA enrichment of interactor (log2),[18],7.81
same,PRISMA enrichment of interactor (log2),[19],5.05
same,PRISMA enrichment of interactor (log2),[20],8.02
same,PRISMA enrichment of interactor (log2),[21],4.91
same,PRISMA enrichment of interactor (log2),[22],5.56
same,PRISMA enrichment of interactor (log2),[23],6.27
same,PRISMA enrichment of interactor (log2),[24],5.91
same,PRISMA enrichment of interactor (log2),[25],5.72
same,PRISMA enrichment of interactor (log2),[26],5.86
same,PRISMA enrichment of interactor (log2),[27],4.36
same,PRISMA enrichment of interactor (log2),[28],8.31
same,PRISMA enrichment of interactor (log2),[29],5.98
same,PRISMA enrichment of interactor (log2),[30],7.83
same,PRISMA enrichment of interactor (log2),[31],6.27
same,PRISMA enrichment of interactor (log2),[32],6.08
same,PRISMA enrichment of interactor (log2),[33],7.21
same,PRISMA enrichment of interactor (log2),[34],4.92
same,PRISMA enrichment of interactor (log2),[35],5.98
same,PRISMA enrichment of interactor (log2),[36],4.59
same,PRISMA enrichment of interactor (log2),[37],8.33
same,PRISMA enrichment of interactor (log2),[38],5.76
same,PRISMA enrichment of interactor (log2),[39],4.63
same,PRISMA enrichment of interactor (log2),[40],5.4
same,PRISMA enrichment of interactor (log2),[41],7.12
same,PRISMA enrichment of interactor (log2),[42],6.14
SIRRSGLPERVHEVF [CUL5],PRISMA enrichment of interactor (log2),[2],4.5
same,PRISMA enrichment of interactor (log2),[43],10.3
same,PRISMA enrichment of interactor (log2),[44],6.11
same,PRISMA enrichment of interactor (log2),[45],4.18
same,PRISMA enrichment of interactor (log2),[46],5.11
same,PRISMA enrichment of interactor (log2),[47],4.67
same,PRISMA enrichment of interactor (log2),[48],4.82
same,PRISMA enrichment of interactor (log2),[49],5.05
same,PRISMA enrichment of interactor (log2),[50],7
same,PRISMA enrichment of interactor (log2),[51],4.33
same,PRISMA enrichment of interactor (log2),[52],6.7
same,PRISMA enrichment of interactor (log2),[53],4.55
same,PRISMA enrichment of interactor (log2),[54],5.38
same,PRISMA enrichment of interactor (log2),[35],6.64
same,PRISMA enrichment of interactor (log2),[55],4.61
same,PRISMA enrichment of interactor (log2),[37],7.01
same,PRISMA enrichment of interactor (log2),[56],4.82
same,PRISMA enrichment of interactor (log2),[57],4.02
same,PRISMA enrichment of interactor (log2),[58],7.36
same,PRISMA enrichment of interactor (log2),[59],5.03

# A stretch taken from the entries so far, for reference:
binder,measurement,setting,value
MATPVGVEHGEQSQA [SNHG16],PRISMA enrichment of interactor (log2),[21],4.91
same,PRISMA enrichment of interactor (log2),[22],5.56
same,PRISMA enrichment of interactor (log2),[23],6.27
same,PRISMA enrichment of interactor (log2),[24],5.91
same,PRISMA enrichment of interactor (log2),[25],5.72
same,PRISMA enrichment of interactor (log2),[26],5.86
same,PRISMA enrichment of interactor (log2),[27],4.36
same,PRISMA enrichment of interactor (log2),[28],8.31
same,PRISMA enrichment of interactor (log2),[29],5.98
same,PRISMA enrichment of interactor (log2),[30],7.83
same,PRISMA enrichment of interactor (log2),[31],6.27
same,PRISMA enrichment of interactor (log2),[32],6.08
same,PRISMA enrichment of interactor (log2),[33],7.21
